We go through one substance from publication PMC11240526.

By UniProt entry, the sequences of proteins in these tests, tags left out. Residues count along the entry.
UniProt P11912, residues 33-226: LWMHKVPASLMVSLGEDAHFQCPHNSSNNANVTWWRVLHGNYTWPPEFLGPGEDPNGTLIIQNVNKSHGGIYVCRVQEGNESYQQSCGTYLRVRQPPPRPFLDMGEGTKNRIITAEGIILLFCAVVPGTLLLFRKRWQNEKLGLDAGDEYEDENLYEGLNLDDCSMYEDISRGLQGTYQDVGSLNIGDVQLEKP
UniProt P40259, residues 29-229: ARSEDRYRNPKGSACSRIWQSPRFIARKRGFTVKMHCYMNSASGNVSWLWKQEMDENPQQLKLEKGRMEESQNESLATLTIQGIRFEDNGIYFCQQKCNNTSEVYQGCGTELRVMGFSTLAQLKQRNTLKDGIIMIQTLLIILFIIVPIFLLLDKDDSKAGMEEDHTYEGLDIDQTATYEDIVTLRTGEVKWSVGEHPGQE

These are yes or no findings as the source states them, for the method shown. Binding seen in cells or lysates may run through a third protein. Here binding means that the protein was enriched with, or labelled near, the bait; the list need not be complete.

This test has as its target CD79a (human (endogenous in Raji)) (UniProt P11912). The experiment in a line: cross-linking + affinity purification with mass spectrometry; hypotonic lysate of Raji cells cross-linked with 5 mM DSSO, 30 min at RT; membrane fraction solubilised in 0.5% DOC lysis buffer; anti-CD79a pull-down on Protein G agarose beads; SDS-PAGE bands A-F digested in gel, MS1 identification …; no negative control antibody.

In the case of CD79b (from UniProt P40259 29-229), the binding result is reported as “binds”.
